Test results published in PMC12412611.
These are yes or no findings as the source states them, for the method shown. In cells and extracts the contact can be indirect. Here binding means that the protein was enriched with, or labelled near, the bait; the list need not be complete. Where a sequence is shown, tags or fusion partners need not be part of it.

Molecular target: T1, Flag-RIG-I (retinoic acid-inducible gene I), O95786
T1 chain: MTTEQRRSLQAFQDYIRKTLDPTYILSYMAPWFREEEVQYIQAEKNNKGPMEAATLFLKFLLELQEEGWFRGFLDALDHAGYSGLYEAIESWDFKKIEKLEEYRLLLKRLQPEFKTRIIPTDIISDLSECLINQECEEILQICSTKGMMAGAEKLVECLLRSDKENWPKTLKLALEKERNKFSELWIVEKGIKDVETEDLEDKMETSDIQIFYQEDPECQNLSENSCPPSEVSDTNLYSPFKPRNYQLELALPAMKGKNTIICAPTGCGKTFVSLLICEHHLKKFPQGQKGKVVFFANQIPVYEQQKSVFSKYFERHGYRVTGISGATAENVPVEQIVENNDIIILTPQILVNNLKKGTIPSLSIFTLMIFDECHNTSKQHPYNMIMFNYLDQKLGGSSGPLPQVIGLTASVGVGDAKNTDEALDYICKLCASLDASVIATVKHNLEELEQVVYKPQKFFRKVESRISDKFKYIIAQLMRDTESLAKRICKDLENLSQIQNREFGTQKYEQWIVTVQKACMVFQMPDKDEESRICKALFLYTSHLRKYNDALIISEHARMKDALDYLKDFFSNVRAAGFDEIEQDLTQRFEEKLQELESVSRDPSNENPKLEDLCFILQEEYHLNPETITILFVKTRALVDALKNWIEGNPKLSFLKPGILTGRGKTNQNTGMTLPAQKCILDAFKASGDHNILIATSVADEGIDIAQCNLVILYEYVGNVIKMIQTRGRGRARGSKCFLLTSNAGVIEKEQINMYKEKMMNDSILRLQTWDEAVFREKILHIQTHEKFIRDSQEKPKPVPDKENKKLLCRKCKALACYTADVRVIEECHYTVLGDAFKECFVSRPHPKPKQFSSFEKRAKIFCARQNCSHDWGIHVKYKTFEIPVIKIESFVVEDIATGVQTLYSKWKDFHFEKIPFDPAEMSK
Assay: affinity purification with mass spectrometry; immunoprecipitates of Flag-tagged RIG-I or TBK1 from HEK293T co-transfected with or without GSDMD-CT; SDS-PAGE bands, trypsin, LC-MS/MS against Swissprot_Human
Settings: remark: other sources report otherwise

binding: binds
B1: endogenous TRIM28 (Tripartite motif-containing 28), Q13263 1-835 (enzyme)
chain: MAASAAAASAAAASAASGSPGPGEGSAGGEKRSTAPSAAASASASAAASSPAGGGAEALELLEHCGVCRERLRPEREPRLLPCLHSACSACLGPAAPAAANSSGDGGAAGDGTVVDCPVCKQQCFSKDIVENYFMRDSGSKAATDAQDANQCCTSCEDNAPATSYCVECSEPLCETCVEAHQRVKYTKDHTVRSTGPAKSRDGERTVYCNVHKHEPLVLFCESCDTLTCRDCQLNAHKDHQYQFLEDAVRNQRKLLASLVKRLGDKHATLQKSTKEVRSSIRQVSDVQKRVQVDVKMAILQIMKELNKRGRVLVNDAQKVTEGQQERLERQHWTMTKIQKHQEHILRFASWALESDNNTALLLSKKLIYFQLHRALKMIVDPVEPHGEMKFQWDLNAWTKSAEAFGKIVAERPGTNSTGPAPMAPPRAPGPLSKQGSGSSQPMEVQEGYGFGSGDDPYSSAEPHVSGVKRSRSGEGEVSGLMRKVPRVSLERLDLDLTADSQPPVFKVFPGSTTEDYNLIVIERGAAAAATGQPGTAPAGTPGAPPLAGMAIVKEEETEAAIGAPPTATEGPETKPVLMALAEGPGAEGPRLASPSGSTSSGLEVVAPEGTSAPGGGPGTLDDSATICRVCQKPGDLVMCNQCEFCFHLDCHLPALQDVPGEEWSCSLCHVLPDLKEEDGSLSLDGADSTGVVAKLSPANQRKCERVLLALFCHEPCRPLHQLATDSTFSLDQPGGTLDLTLIRARLQEKLSPPYSSPQEFAQDVGRMFKQFNKLTEDKADVQSIIGLQRFFETRMNEAFGDTKFSAVLVEPPPMSLPGAGLSSQELSGGPGDGP
